Taken from: PubChem BioAssay AID652243 (Drosophila RNAi Screening Center, 2013)
The screen tested about 24,000 reagents; this is an unselected part of those that have a named target and a result. Of all reagents, 246 (1%) got an active call. 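Plates not normalised; calls are printed but the firefly/Renilla ratio behind them is not deposited; fold cut for lowering reported inconsistently.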 Raw values vary from plate to plate and are shown uncorrected. Unmarked entries are inactive. Reagent sequences are not shown. Not given: the amount of reagent.

- Screen: 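Fly regulators of androgen-dependent reporter output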 (primary screen)
- Cell system: Drosophila S2R+ cells
- Reagent: long dsRNA against Drosophila genes
- Duration: 72 h (48 h, then 24 h hormone)
- Challenge: synthetic androgen R1881 at 10 nM for 24 h
- Read-out: 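Firefly light from an androgen-responsive reporter and Renilla control light per well, raw and unnormalised, for each of two replicates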
- Scale: firefly reporter light: higher = more light from androgen-responsive reporter; Renilla control light: higher = more constitutive control signal (cell number, transfection)
- Active means: 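Across duplicate plates, a knock-down whose log firefly/Renilla ratio shifted a set fold down or up from the GFP/LacZ control mean was a hit; the downward cut appears as both 1.5 and 3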
- Meaning of the calls: active = hit: reporter lowered or raised; inactive = no hit

CG3117 [DRSC38930] — firefly reporter light, replicate 1 = 9.75e5; firefly reporter light, replicate 2 = 9.35e5; Renilla control light, replicate 1 = 2.47e6; Renilla control light, replicate 2 = 2.06e6
CG31636 [DRSC02276] — firefly reporter light, replicate 1 = 2.05e5; firefly reporter light, replicate 2 = 1.98e5; Renilla control light, replicate 1 = 1.57e6; Renilla control light, replicate 2 = 1.37e6
CG31636 [DRSC24911] — firefly reporter light, replicate 1 = 6.65e5; firefly reporter light, replicate 2 = 7.72e5; Renilla control light, replicate 1 = 1.27e6; Renilla control light, replicate 2 = 1.30e6
CG33233 [DRSC08239] — firefly reporter light, replicate 1 = 1.34e5; firefly reporter light, replicate 2 = 94529; Renilla control light, replicate 1 = 9.56e5; Renilla control light, replicate 2 = 1.33e6
dib [DRSC08711] — firefly reporter light, replicate 1 = 9.55e5; firefly reporter light, replicate 2 = 9.84e5; Renilla control light, replicate 1 = 1.13e6; Renilla control light, replicate 2 = 1.19e6
dib [DRSC26980] — firefly reporter light, replicate 1 = 3.27e5; firefly reporter light, replicate 2 = 3.41e5; Renilla control light, replicate 1 = 7.13e5; Renilla control light, replicate 2 = 5.97e5
dhd [DRSC18761] — firefly reporter light, replicate 1 = 1.25e5; firefly reporter light, replicate 2 = 1.22e5; Renilla control light, replicate 1 = 8.81e5; Renilla control light, replicate 2 = 7.89e5
dhd [DRSC29590] — firefly reporter light, replicate 1 = 7.52e5; firefly reporter light, replicate 2 = 7.53e5; Renilla control light, replicate 1 = 1.07e6; Renilla control light, replicate 2 = 1.07e6
CG3309 [DRSC18301] — firefly reporter light, replicate 1 = 88706; firefly reporter light, replicate 2 = 1.13e5; Renilla control light, replicate 1 = 1.74e6; Renilla control light, replicate 2 = 1.67e6
CG3309 [DRSC26197] — firefly reporter light, replicate 1 = 3.42e5; firefly reporter light, replicate 2 = 2.88e5; Renilla control light, replicate 1 = 3.28e5; Renilla control light, replicate 2 = 3.54e5
Kdm2 [DRSC14286] — firefly reporter light, replicate 1 = 62533; firefly reporter light, replicate 2 = 1.08e5; Renilla control light, replicate 1 = 3.41e5; Renilla control light, replicate 2 = 6.21e5
CG9784 [DRSC20210] — firefly reporter light, replicate 1 = 3.10e5; firefly reporter light, replicate 2 = 3.69e5; Renilla control light, replicate 1 = 3.30e6; Renilla control light, replicate 2 = 3.58e6
CG9784 [DRSC28204] — firefly reporter light, replicate 1 = 6.15e5; firefly reporter light, replicate 2 = 6.29e5; Renilla control light, replicate 1 = 1.25e6; Renilla control light, replicate 2 = 1.42e6

Laid out differently: results already given.
dhd [DRSC18761]
- firefly reporter light, replicate 1: 1.25e5
- firefly reporter light, replicate 2: 1.22e5
- Renilla control light, replicate 1: 8.81e5
- Renilla control light, replicate 2: 7.89e5

dhd [DRSC29590]
- firefly reporter light, replicate 1: 7.52e5
- firefly reporter light, replicate 2: 7.53e5
- Renilla control light, replicate 1: 1.07e6
- Renilla control light, replicate 2: 1.07e6
